# Experimental data as given in the supplement of paper PMC10338343.
# ± gives the standard deviation. The entries are a selection whose mix differs from that of the whole data set. Many of these values have a large error.
# System: MIWI (PIWIL1) piRISC loaded with L1MC piRNA (30 nt)
# Assay: pre-steady-state target cleavage rate (min^-1); MIWI and MILI are mouse PIWI proteins and EfPiwi is from a freshwater sponge; tags in brackets are library labels; higher = faster piRNA-guided slicing of the target
# Conditions: guide: L1MC piRNA 5'p-UAACUAAAUACUAUGCAAGCUGUAGGUCCU; auxiliary factor: 500 nM mouse GTSF1
# Method in brief: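 For Cleave-'n-Seq, a transcribed, DNA-blocked target RNA library […] met 1 nM active affinity-purified piRISC with one synthetic guide at 33 °C for 0–8 or 0–960 min in HEPES–potassium acetate buffer, with or without 500 nM GTSF1 partner protein. Uncleaved targets were sequenced and normalised to depth and weakly complementary targets, with three trials pooled and k3 capped at 0.0001 min^-1. A burst-and-steady-state fit supplied the pre-steady-state cleavage rate.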
# 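Also: 1 nM active piRISC with 0.1 nM target library at 33 °C single turnover.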
row,Sequence,pre-steady-state target cleavage rate
1,UCCUCCAACAGCUUGCAUAGUAUUUAGUUA,1.37 ± 0.041
2,UCCUGGAUGUCGAUGCAUAGUUUUUUGUUA,0.000567 ± 0.015
3,UCCUGGAUGUCGAACGUUAGUAUUUAUUUA,0.000173 ± 0.036
4,UCCUGGAUGUCGUUGCAUUCUAUUUAGUUA,0.000585 ± 0.016

# Same assay, conditions: guide: L1MC piRNA 5'p-UAACUAAAUACUAUGCAAGCUGUAGGUCCU; auxiliary factor: none (no GTSF1)
row,Sequence,pre-steady-state target cleavage rate
1,UCCUCCUACAGCUUGCUAUGUAUUUUCAAA,0.000536 ± 0.008
2,UCCUGGAUCAGCUUGCAAAGUAUUUUCAAA,0.00185 ± 0.0036
3,UCCUGGAACAGCUUGCAUUCAAUUUAGUUA,0.000631 ± 0.0066
4,UCCUGGAUGUCGAAGCCAUAGUAUUUAGUUA,0.000198 ± 0.018
5,UCCUGGAUGAGCUUGCAAUGUAUUUAGUAA,0.00278 ± 0.0033
6,UCCUGGAUGUCGAAGAUAGUAUUUAGUUA,0.000455 ± 0.011
7,UCCUGGAUGUCCUUGCAUAGUUUAUAGUUA,0.00171 ± 0.0034
8,UCCUGGAUCAGCUUGCAUAGUAUAUACAAA,0.00184 ± 0.0036
9,UCCUGGAUGUCCUUGGAUAGUAUAUAGUUA,0.00074 ± 0.0096
10,UCCUGCUACUCCUUGCAUAGUAUUUACAAA,0.00174 ± 0.0038
11,UCCUGGAUGUCGACGCAUAGUAUUUAGUUA,0.000961 ± 0.0065
12,UCCUCCUACAGCUUGCAUAGUAUAAACAAA,0.000722 ± 0.0075
13,UCCUGGAUGUCGAAGCAUAGUUAUUAGUUA,0.0006 ± 0.0088
14,UCCUGGAUCAGCUUGCAAUGUAUUUAGAAA,0.00286 ± 0.003
15,UCCUGGAUGUCGAAGCAUAGUAUUAAGUAA,0.000552 ± 0.011
16,UCCUCCUAGUCCUUGCAUAGUAUUUUCAAA,0.00122 ± 0.0031
17,UCCUGGUACAGCUUGGUAAGUAUUUAGUAA,0.00124 ± 0.0057
18,UCCUGGAUCUCCUUGCAUAGUAUUUACAAA,0.0013 ± 0.0052

row,Sequence,pre-steady-state target cleavage rate
1,UCCUCCUUGUGCUUGCAUAGUAUUUUCAAA,0.00201 ± 0.0022
2,UCCUGGAUGUCGAACCAUUGUAUUUAGUUA,0.000338 ± 0.012
3,UCCUGGAUGUCCUUGCAUAGUAUUAUGUUA,0.000718 ± 0.0097
4,UCCUGGAACAGCUUGCAUACGUAUUUAGUUA,0.000701 ± 0.0089
5,UCCUGGAUCAGCUUGCAUAGUAUUAACAAA,0.00273 ± 0.0046
6,UCCUGCUACAGGAUGCAUAGUAUUUAGAAA,0.00113 ± 0.0035
7,UCCUGGUACAGCUAGCAUAGUAUUUUCAAA,0.00104 ± 0.0049
8,UCCUGGAUGUCGAUGCCAUAGUAUUUAGUUA,0.00058 ± 0.013
9,UCCUGGAUGUGCUUGACAUAGUAUUUAGUUA,0.00166 ± 0.0073
10,UCCUCCUACACCUUGCAUAGUAUUUUCAAA,0.00181 ± 0.0026
11,UCCUGGUAGAGCUUGCAUAGUAUUUACAAA,0.00249 ± 0.0032
12,UCCUGGAACAGCUUGCAUAGUAUAUAGAAA,0.00109 ± 0.0049
13,UCCUGGAUGUCGUUGCAAUGUAUUUAGUUA,0.000824 ± 0.0093
14,UCCUGGAUGUCGAACCUAGUAUUUAGUUA,0.000194 ± 0.0097
15,UCCUCCUACACGAUGCAUAGUAUUUAGAAA,0.000819 ± 0.0065
16,UCCUGGAUGUCCUUGCAUUGAAUUUAGUUA,0.000952 ± 0.0055
17,UCCUGGAUGUGCUUGCAUAGAUAAAUCAAA [g11:g20:cont:t1A],0.00036 ± 0.013
18,UCCUGGAUGUCGUUGCAUAGUAUUUUGUAA,0.000625 ± 0.0087

# Two consecutive entries from above, quoted:
row,Sequence,pre-steady-state target cleavage rate
8,UCCUGGAUGUCGAUGCCAUAGUAUUUAGUUA,0.00058 ± 0.013
9,UCCUGGAUGUGCUUGACAUAGUAUUUAGUUA,0.00166 ± 0.0073
